For test [1], the system named is ReNCell VM. In words: neuronal differentiation score (DCX+ cell fraction vs untreated, manual image score) (score (-3 to 3)); higher = more neuronal differentiation. As to conditions: 2 uM, 2 weeks.
The test system of test [2] is ReNCell VM. In words: dopaminergic neuron differentiation score (TH+ cell fraction vs untreated, manual image score) (score (0 to 3)); higher = more TH+ dopaminergic neuron differentiation. As to conditions: 2 uM, 4 weeks, BDNF 10 ng/ml + GDNF 10 ng/ml.

Structures can show the parent of a compound that is named as a salt. This is one part of the list. This data set is noisy: repeats of one test often differ as much as different tests do.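 Cells: ReNCell VM human fetal ventral-midbrain neural progenitors, differentiated mitogen-free. Blinded raters compared doublecortin-stained (early neurons) or tyrosine hydroxylase-stained (dopaminergic neurons) images with untreated wells, where 0 means no change. After repeats and both raters were averaged, compounds scoring 2 or above became hits for retesting.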

The results in this text go back to the supplement of paper PMC4635364.

Consider `COc1ccccc1C1(O)CCN(CCCn2c3ccccc3c3ccccc32)CC1` [NNC 05-2090 hydrochloride], for which the neuronal differentiation score in the test on ReNCell VM [1] (library: Tocriscreen) was inactive: 0. The “dopaminergic neuron differentiation score” value in the test with ReNCell VM [2] (library: Tocriscreen) is inactive: 0.

With `COc1ccc2oc(-c3ccccc3)c(OC)c(=O)c2c1`, the neuronal differentiation score in the test with ReNCell VM [1] (library: Spectrum) is inactive: 0. Besides, the “dopaminergic neuron differentiation score” value in the test with ReNCell VM [2] (library: Spectrum) was inactive: 0.

Take `N#C/C(=C\c1ccc(O)c(O)c1)C(=O)NCCCc1ccccc1` [Tyrphostin AG 555]: the neuronal differentiation score in the test with ReNCell VM [1] (library: LOPAC) is inactive: 0. In addition, the “dopaminergic neuron differentiation score” value with ReNCell VM [2] (library: LOPAC) was inactive: 1.

`O=c1oc2ccccc2c(O)c1Cc1c(O)c2ccccc2oc1=O`: in the test on ReNCell VM [1] (library: Spectrum), the neuronal differentiation score is inactive: 1. Besides, the “dopaminergic neuron differentiation score” value in the test with ReNCell VM [2] (library: Spectrum) is inactive: 0.

For the molecule `CN(C)c1cc2c(Nc3ccc4c(cnn4Cc4ccccc4)c3)ncnc2cn1`, the neuronal differentiation score in the test with ReNCell VM [1] (library: LOPAC) was inactive: 0. For the same molecule, the “dopaminergic neuron differentiation score” value in the test with ReNCell VM [2] (library: LOPAC) was inactive: 0.

As for `NCc1ccc(S(N)(=O)=O)cc1` [Mafenide hydrochloride], the neuronal differentiation score in the test with ReNCell VM [1] (library: Prestwick) was inactive: 0. Besides, the “dopaminergic neuron differentiation score” value in the test on ReNCell VM [2] (library: Prestwick) is inactive: 0.

For the molecule `C=CC(N)CCC(=O)O` (stereo unspecified), in the test on ReNCell VM [1] (library: Spectrum), the neuronal differentiation score is inactive: 0. The “dopaminergic neuron differentiation score” value in the test on ReNCell VM [2] (library: Spectrum) is inactive: 0.

Turning to `COc1cc2[nH]c(=O)[nH]c(=O)c2cc1OC` [6,7-dimethoxy-quinazoline-2,4-diol], the neuronal differentiation score in the test with ReNCell VM [1] (library: Natural) is inactive: 0. For the same molecule, in the test on ReNCell VM [2] (library: Natural), the “dopaminergic neuron differentiation score” value is inactive: 0.

`CCCCN(CCCC)CCC(O)c1cc2c(Cl)cc(Cl)cc2c2cc(C(F)(F)F)ccc12` (stereo unspecified) [Halofantrine hydrochloride]: the neuronal differentiation score with ReNCell VM [1] (library: Prestwick) is inactive: 0. Also, the “dopaminergic neuron differentiation score” value in the test on ReNCell VM [2] (library: Prestwick) was inactive: 0.

Regarding `CN1C(C(=O)Nc2ccccn2)=C(O)c2sccc2S1(=O)=O`, the neuronal differentiation score in the test with ReNCell VM [1] (library: Spectrum) is inactive: 0. Besides, the “dopaminergic neuron differentiation score” value in the test on ReNCell VM [2] (library: Spectrum) was inactive: 0.

As to `CCN(CC)CCN[C@@H](C(=O)OCCC(C)C)c1ccccc1` [Camylofine chlorhydrate], the neuronal differentiation score in the test on ReNCell VM [1] (library: Prestwick) was inactive: 0. In addition, the “dopaminergic neuron differentiation score” value in the test on ReNCell VM [2] (library: Prestwick) was inactive: 0.

As for `C/C=C1\C(=O)C[C@H]2[C@@H]3CCC4=CC(=O)CC[C@]4(C)[C@H]3CC[C@]12C` [Guggulsterone], the neuronal differentiation score in the test with ReNCell VM [1] (library: Tocriscreen) is inactive: 0. For the same molecule, in the test with ReNCell VM [2] (library: Tocriscreen), the “dopaminergic neuron differentiation score” value is inactive: 0.

`O=C(O)C1=CCCN(CCON=C(c2ccccc2)c2ccccc2)C1` [NO-711 hydrochloride]: in the test with ReNCell VM [1] (library: LOPAC), the neuronal differentiation score is inactive: 0. Also, the “dopaminergic neuron differentiation score” value with ReNCell VM [2] (library: LOPAC) is inactive: 0.

Consider `Oc1nc(-c2ccc(C(F)(F)F)cc2)nc2c1CSCC2`, for which, in the test with ReNCell VM [1] (library: Tocriscreen), the neuronal differentiation score was inactive: 0. Also, the “dopaminergic neuron differentiation score” value in the test on ReNCell VM [2] (library: Tocriscreen) is inactive: 0.

Consider `O=c1[nH]c(=O)c2ccccc2o1`, for which the neuronal differentiation score with ReNCell VM [1] (library: Spectrum) is inactive: 0. Besides, the “dopaminergic neuron differentiation score” value in the test with ReNCell VM [2] (library: Spectrum) is inactive: 0.

For the molecule `C[C@@H]1C(=O)O[C@H]2C[C@@]34[C@H]5C[C@@H](C(C)(C)C)[C@]36[C@@H](OC(=O)[C@@H]6O)O[C@@]4(C(=O)O5)[C@]21O` [Ginkgolide A], in the test on ReNCell VM [1] (library: Phytochemical), the neuronal differentiation score was inactive: 0. For the same molecule, in the test on ReNCell VM [2] (library: Phytochemical), the “dopaminergic neuron differentiation score” value is inactive: 0.

Take `CC(C)=CCC1C(=O)C(C(=O)CC(C)C)=C(O)C(O)(CC=C(C)C)C1=O` (stereo unspecified) [humulone]: in the test with ReNCell VM [1] (library: Natural), the neuronal differentiation score is inactive: 0. Moreover, in the test on ReNCell VM [2] (library: Natural), the “dopaminergic neuron differentiation score” value was inactive: 0.

As to `COC(=O)Nc1nc2cc([S+]([O-])c3ccccc3)ccc2[nH]1` (stereo unspecified) [Oxfendazol], the neuronal differentiation score with ReNCell VM [1] (library: Prestwick) was inactive: 0. The “dopaminergic neuron differentiation score” value with ReNCell VM [2] (library: Prestwick) is inactive: 0.

For `CN1Cc2sccc2C(c2ccc(O)c(O)c2)C1` (stereo unspecified), the neuronal differentiation score with ReNCell VM [1] (library: LOPAC) was inactive: 0. Further, in the test with ReNCell VM [2] (library: LOPAC), the “dopaminergic neuron differentiation score” value was inactive: 0.

For `O=C1c2c(O)cccc2Cc2cccc(O)c21`, the neuronal differentiation score in the test with ReNCell VM [1] (library: Spectrum) is inactive: -1. Besides, the “dopaminergic neuron differentiation score” value in the test on ReNCell VM [2] (library: Spectrum) is inactive: 0.

For `NC(=O)CCCCC1CCSS1` (stereo unspecified), in the test on ReNCell VM [1] (library: Spectrum), the neuronal differentiation score is inactive: 0. Besides, the “dopaminergic neuron differentiation score” value in the test with ReNCell VM [2] (library: Spectrum) is inactive: 1.

Take `Cc1cc(O)c(C=O)c2c1C(=O)Oc1c(C)c(O)c3c(c1O2)C(O)OC3=O` (stereo unspecified): the neuronal differentiation score in the test on ReNCell VM [1] (library: Spectrum) was inactive: 0. Also, the “dopaminergic neuron differentiation score” value in the test on ReNCell VM [2] (library: Spectrum) is inactive: 0.

Turning to `C[C@]12C=CC(=O)C=C1CC[C@@H]1[C@@H]2[C@@H](O)C[C@@]2(C)[C@H]1CC[C@]2(O)C(=O)COP(=O)(O)O`, the neuronal differentiation score in the test with ReNCell VM [1] (library: Spectrum) is inactive: 0. In addition, in the test with ReNCell VM [2] (library: Spectrum), the “dopaminergic neuron differentiation score” value was inactive: 0.

In the case of `CC(=O)O[C@]1(C(C)=O)CC[C@H]2[C@@H]3C=C(Cl)C4=CC(=O)CC[C@]4(C)[C@H]3CC[C@@]21C`, in the test on ReNCell VM [1] (library: Spectrum), the neuronal differentiation score was inactive: 0. Besides, the “dopaminergic neuron differentiation score” value with ReNCell VM [2] (library: Spectrum) was inactive: 0.

As for `O=C1CCC[C@@H]2[C@H]3CCC[N+]4([O-])CCC[C@@H](CN12)[C@@H]34` (stereo partly specified) [Oxymatrine], the neuronal differentiation score with ReNCell VM [1] (library: Phytochemical) is inactive: 1. Also, the “dopaminergic neuron differentiation score” value with ReNCell VM [2] (library: Phytochemical) was inactive: 0.

Consider `CC(=O)c1ccc2c(c1)N(CCCN1CCN(CCO)CC1)c1ccccc1S2`, for which the neuronal differentiation score in the test with ReNCell VM [1] (library: Spectrum) was inactive: 0. The “dopaminergic neuron differentiation score” value with ReNCell VM [2] (library: Spectrum) was inactive: 0.

For the molecule `c1ccc(CN2CCC3(CCc4ccccc43)CC2)cc1` [L-693,403 maleate], in the test on ReNCell VM [1] (library: Tocriscreen), the neuronal differentiation score is inactive: 0. In addition, the “dopaminergic neuron differentiation score” value with ReNCell VM [2] (library: Tocriscreen) is inactive: 0.

As to `Nc1ncnc(Nc2ccc(Cl)cc2)n1`, the neuronal differentiation score in the test on ReNCell VM [1] (library: Spectrum) is inactive: 0. In the test with ReNCell VM [2] (library: Spectrum), the “dopaminergic neuron differentiation score” value was inactive: 0.

`FC(F)(F)c1ccc(/C=C/c2nc(COc3ccc(CCCCn4ccnn4)cc3)co2)cc1`: the neuronal differentiation score in the test on ReNCell VM [1] (library: Tocriscreen) was inactive: 0. Besides, the “dopaminergic neuron differentiation score” value with ReNCell VM [2] (library: Tocriscreen) was inactive: 0.

In the case of `Nc1ccc(S(N)(=O)=O)cc1` [Sulfanilamide], in the test with ReNCell VM [1] (library: Prestwick), the neuronal differentiation score is inactive: 0. The “dopaminergic neuron differentiation score” value with ReNCell VM [2] (library: Prestwick) is inactive: 0.

On to `O=S(=O)(c1cccc2cnccc12)N1CCNCC1`, for which, in the test on ReNCell VM [1] (library: LOPAC), the neuronal differentiation score was inactive: -1. Also, the “dopaminergic neuron differentiation score” value in the test on ReNCell VM [2] (library: LOPAC) is inactive: 0.

For the molecule `CCCNC(=O)NS(=O)(=O)c1ccc(Cl)cc1`, the neuronal differentiation score in the test with ReNCell VM [1] (library: Spectrum) is inactive: 0. Also, the “dopaminergic neuron differentiation score” value in the test on ReNCell VM [2] (library: Spectrum) is inactive: 0.

With `C[C@]12C=CC(=O)C=C1CC[C@@H]1[C@@H]2[C@@H](O)C[C@@]2(C)[C@H]1CC[C@]2(O)C(=O)COC(=O)CCC(=O)O`, the neuronal differentiation score with ReNCell VM [1] (library: Spectrum) was inactive: 0. Besides, the “dopaminergic neuron differentiation score” value with ReNCell VM [2] (library: Spectrum) is inactive: 0.
